In this assay the target is T1, GST-Pef1p (S. cerevisiae) (UniProt P53238).
T1 sequence: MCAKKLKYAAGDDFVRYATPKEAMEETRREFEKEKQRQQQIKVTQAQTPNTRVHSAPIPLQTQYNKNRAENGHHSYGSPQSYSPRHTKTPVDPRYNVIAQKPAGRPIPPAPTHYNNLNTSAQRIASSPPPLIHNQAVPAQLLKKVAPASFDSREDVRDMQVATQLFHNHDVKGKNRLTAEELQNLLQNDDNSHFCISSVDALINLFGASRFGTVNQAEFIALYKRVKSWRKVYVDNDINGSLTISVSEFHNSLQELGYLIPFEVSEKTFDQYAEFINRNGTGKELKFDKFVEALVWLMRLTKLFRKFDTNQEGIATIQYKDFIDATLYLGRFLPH
In words: pull-down; GST-Pef1p or GST (40 nM) and MBP-Sec31p fragment (80 nM), glutathione-Sepharose beads, 4°C 2 h, 20 mM HEPES-KOH pH 8.0, 160 mM potassium acetate, 0.1% Triton X-100; CaCl2 or EGTA not told for this experiment; immunoblot with anti-MBP; both purified.

These are yes or no findings as the source states them, for the method shown. Tags and fused reporters may be left off the sequences shown.

B1: MBP-Sec31(1–490) (domain or fragment, UniProt P38968 1-490)
chain: MVKLAEFSRTATFAWSHDKIPLLVSGTVSGTVDANFSTDSSLELWSLLAADSEKPIASLQVDSKFNDLDWSHNNKIIAGALDNGSLELYSTNEANNAINSMARFSNHSSSVKTVKFNAKQDNVLASGGNNGEIFIWDMNKCTESPSNYTPLTPGQSMSSVDEVISLAWNQSLAHVFASAGSSNFASIWDLKAKKEVIHLSYTSPNSGIKQQLSVVEWHPKNSTRVATATGSDNDPSILIWDLRNANTPLQTLNQGHQKGILSLDWCHQDEHLLLSSGRDNTVLLWNPESAEQLSQFPARGNWCFKTKFAPEAPDLFACASFDNKIEVQTLQNLTNTLDEQETETKQQESETDFWNNVSREESKEKPTVFHLQAPTWYGEPSPAAHWAFGGKLVQITPDGKGVSITNPKISGLESNTTLSEALKTKDFKPLINQRLVKVIDDVNEEDWNLLEKLSMDGTEEFLKEALAFDNDESDAQDDANNEKEDDGEEF
For the molecule B1, the binding result is on record as “no binding (tested: 80 nM fragment, 40 nM GST-Pef1p)”.

B2: MBP-Sec31(1–769) (domain or fragment, UniProt P38968 1-769)
chain: MVKLAEFSRTATFAWSHDKIPLLVSGTVSGTVDANFSTDSSLELWSLLAADSEKPIASLQVDSKFNDLDWSHNNKIIAGALDNGSLELYSTNEANNAINSMARFSNHSSSVKTVKFNAKQDNVLASGGNNGEIFIWDMNKCTESPSNYTPLTPGQSMSSVDEVISLAWNQSLAHVFASAGSSNFASIWDLKAKKEVIHLSYTSPNSGIKQQLSVVEWHPKNSTRVATATGSDNDPSILIWDLRNANTPLQTLNQGHQKGILSLDWCHQDEHLLLSSGRDNTVLLWNPESAEQLSQFPARGNWCFKTKFAPEAPDLFACASFDNKIEVQTLQNLTNTLDEQETETKQQESETDFWNNVSREESKEKPTVFHLQAPTWYGEPSPAAHWAFGGKLVQITPDGKGVSITNPKISGLESNTTLSEALKTKDFKPLINQRLVKVIDDVNEEDWNLLEKLSMDGTEEFLKEALAFDNDESDAQDDANNEKEDDGEEFFQQIETNFQPEGDFSLSGNIEQTISKNLVSGNIKSAVKNSLENDLLMEAMVIALDSNNERLKESVKNAYFAKYGSKSSLSRILYSISKREVDDLVENLDVSQWKFISKAIQNLYPNDIAQRNEMLIKLGDRLKENGHRQDSLTLYLAAGSLDKVASIWLSEFPDLEDKLKKDNKTIYEAHSECLTEFIERFTVFSNFINGSSTINNEQLIAKFLEFINLTTSTGNFELATEFLNSLPSDNEEVKTEKARVLIASGKSLPAQNPATATTSKAKYTNAKTN
As to B2, the binding result is reported as “no binding (tested: 80 nM fragment, 40 nM GST-Pef1p)”.
